Literature values in patent US6555139B2, “Preparation of micron-size pharmaceutical particles by microfluidization” (Wockhardt Europe Limited, priority 1999, dated 2003).

Details: from the jejunum; cited from earlier work

Q: For `COC(=O)C1=C(C)NC(C)=C(C(=O)OC)C1c1ccccc1[N+](=O)[O-]` [Nifedipine, nifedipine], which “absorption rate, t80%” value is on record?
A: Its value is “less than 0.7 hours”.
